Source: PubChem BioAssay AID1259424 (University of Nebraska Medical Center, 2018)
Assay: 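Seek colon cancer survival genes behaving like KSR1, using a six-gene signature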 (primary screen). System: human HCT116 colon cancer cells. Knock-down reagent: siRNA pool against human genes, 50 nM. Measured: 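Six signature mRNAs by branched-DNA multiplex assay, scaled to two housekeeping genes and non-targeting median, log2; matched to mean KSR1 knockdown profile by Pearson correlation and euclidean distance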. Reading the numbers: mean correlation with KSR1 profile and KSR1 correlation: higher = expression change more like KSR1 knockdown; mean distance from KSR1 profile: higher = expression change less like KSR1 knockdown.
The whole screen tested about 14,000 reagents; shown is a random part of them. 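Higher correlation or smaller distance means closer resemblance to KSR1 loss; control wells, including KSR1 knockdowns, recur on many plates.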 Further read-outs or replicates are left out here. Not stated in the record: the time to read-out.

no.	gene	mean correlation with KSR1 profile	mean distance from KSR1 profile	KSR1 correlation, replicate 1
1	STX5	-0.672	1.73	-0.694
2	USP49	-0.4	3.27	-0.108
3	COL15A1	-0.00122	2.06	0.0935
4	WAC	-0.684	6.46	-0.554
5	IL15RA	-0.364	1.54	-0.269
6	LPCAT1	-0.0407	2.32	-0.147
7	PARL	-0.319	2.25	-0.448
8	A2M	-0.973	1.42	-0.822
9	ACLY	0.0933	1.59	0.124
10	FAM32A	-0.446	2.14	-0.393
11	TJP1	-0.671	2.66	-0.652
12	NAP1L2	0.253	0.978	0.641
13	HLA-B	-0.265	2.95	-0.179
14	EPHB6	0.338	3.64	0.108
15	ECPAS	0.0318	1.81	0.0489
16	P2RX2	-0.503	1.34	-0.32
17	RHBDL2	-0.142	2.45	-0.114
18	H3C3	-0.302	1.4	-0.114
19	SV2A	-0.405	2.5	-0.173
20	CD99	-0.297	1.44	-0.202
21	KIZ	-0.555	2.09	-0.346
22	OXT	0.444	1.18	0.411
23	EIF2B5	-0.205	3.72	0.088
24	HS3ST4	-0.595	3.38	-0.432
25	ADH1C	0.097	3.85	0.179
26	LRRC2	0.122	2.57	0.18
27	ATXN2L	0.312	1.4	0.587
28	KLHDC2	0.523	1.38	0.581
29	PRKAA2	0.135	2.15	0.402
30	RSKR	0.598	1.85	0.585
31	CASTOR3P	0.346	1.5	0.308
32	POLA1	-0.454	2.28	-0.423
33	UQCRQ	-0.599	4.51	-0.435
34	CFAP46	-0.302	1.61	-0.0704
35	PROM1	-0.132	3.25	0.0362
36	LARP1	0.159	4.02	0.151
37	STARD3NL	0.416	1.46	-0.102
38	SCYL3	0.117	2.8	0.26
39	DIAPH1	-0.25	2.79	-0.195
40	F11R	-0.401	3.71	-0.458
41	UBAP2L	0.0333	2.5	-0.0106
42	ENAH	-0.529	1.99	-0.655
43	CCL3L1	-0.84	1.55	-0.641
44	RTN2	0.0163	1.55	0.0862
45	AK8	0.0432	4.04	0.0722
46	MRPS35	-0.772	2.18	-0.531
47	EMC9	-0.742	1.17	-0.605
48	SIK2	-0.0458	2.12	0.208
49	GINS1	-0.156	2.41	0.0568
50	CIPC	-0.29	3.99	-0.274
